Measured values as given in article PMC12123601, “Light-Induced, Lysine-Targeting Irreversible Covalent Inhibition of the Human Oxygen Sensing Hydroxylase Factor Inhibiting HIF (FIH)” (Journal of the American Chemical Society, 2025).

Experiment: Light-induced click conjugation with Cbz-Lys-OMe monitored by LC-MS
Conditions: for Click reaction with Cbz-Lys-OMe under light activation (LC–MS): Hepes buffer, irradiation 365 nm, 16 W, 0-4 h
Procedure: To investigate the feasibility of the covalent inhibitor design, we first investigated the reactivity of NBA-ZG-2291 with Cbz-Lys-OMe, i.e. a diprotected lysine residue, under 365 nm light-mediated activation in the buffer (Figure A). Liquid chromatography–mass spectrometry (LC–MS) experiments were conducted to monitor the formation of the potential indazolone product. The reaction proceeded smoothly upon light activation (365 nm, 16 W). […] The product was identified as 3 by mass spectrometric analysis (Figure S2). After 2 h of light exposure, the reaction reached saturation with a yield of ∼90% (Figure C). NBA-ZG-2291 and Cbz-Lys-OMe in the buffer can undergo an aldehyde-amine ligation-like coupling reaction under UV irradiation. The reaction begins with the photolysis of o-NBA rapidly generating o-nitroso benzaldehyde. The primary amine of Cbz-Lys-OMe undergoes condensation with o-nitroso benzaldehyde, leading to subsequent formation of the indazolone product (Figure S3).
2 Light-induced click conjugation between NBA-ZG-2291 (500 μM) and Cbz-Lys-OMe (lysine residue, 2 mM). (A) Light-induced click conjugation of primary amine 2 with o-NBA derivate 1. (B) Peaks for the conjugated product (3) increased after light activation. (C) The reaction proceeded efficiently after light activation. TEXT PRINTED IN THE PICTURE: (A) NBA-ZG-2291 (1): MW1 = 414 | (A) Cbz-Lys-OMe (2): MW2 = 294 | (A) Product (3): MW3 = 672 = MW1 + 378
Based on the proposed mechanism, we designed and synthesized two control compounds lacking the para-hydroxy methyl group (Neg-1, Table S1, Figure A) or the meta-nitro group (Neg-2, Table S2, Figure A) compared to NBA-ZG-2291.

SMILES: O=C(O)CNC(=O)c1ncc(-c2cc(-c3cccc([N+](=O)[O-])c3)no2)cc1O [Neg-1]
- Click reaction with Cbz-Lys-OMe under light activation (LC–MS): neither of the control compounds undergoes click reaction

SMILES: O=C(O)CNC(=O)c1ncc(-c2cc(-c3ccc(CO)cc3)no2)cc1O [Neg-2]
- Click reaction with Cbz-Lys-OMe under light activation (LC–MS): neither of the control compounds undergoes click reaction

SMILES: O=C(O)CNC(=O)c1ncc(-c2cc(-c3ccc(CO)c([N+](=O)[O-])c3)no2)cc1O [NBA-ZG-2291]
- Yield of indazolone product in light-induced click conjugation (500 μM compound, 2 mM Cbz-Lys-OMe, buffer, 2 h light exposure (365 nm, 16 W)): ~90%
